± gives the standard deviation of the averaged measurements. The list shows a part of the results, in another mix than the full data.
Compound: Nc1ncnc2c1ncn2[C@@H]1O[C@H](COP(=O)(O)OP(=O)(O)NP(=O)(O)O)[C@@H](O)[C@H]1O [adenylyl imidodiphosphate]
Test: NP40-soluble protein abundance relative to vehicle (solubility fold change) (ratio); higher = more soluble protein in presence of AMP-PNP
Outline: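 Crude Jurkat lysate, prepared by Dounce homogenisation, was exposed to eight concentrations from 0.1 to 10 mM for 10 min at room temperature and then 3 min at 37 °C. Solubilisation used 0.8% NP40 with benzonase for 60 min at 4 °C, followed by ultracentrifugation and TMT labelling of the supernatant for LC-MS/MS. After vsn normalisation of intensities, each value is the fold change against the detergent-processed vehicle within each replicate, across three independent experiments.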

The chains behind the UniProt entries cited, without tags or fusion partners. Where a name states a change or a piece, a line headed by the entry shows the natural chain unless it says otherwise.
UniProt Q96SZ5, whole entry: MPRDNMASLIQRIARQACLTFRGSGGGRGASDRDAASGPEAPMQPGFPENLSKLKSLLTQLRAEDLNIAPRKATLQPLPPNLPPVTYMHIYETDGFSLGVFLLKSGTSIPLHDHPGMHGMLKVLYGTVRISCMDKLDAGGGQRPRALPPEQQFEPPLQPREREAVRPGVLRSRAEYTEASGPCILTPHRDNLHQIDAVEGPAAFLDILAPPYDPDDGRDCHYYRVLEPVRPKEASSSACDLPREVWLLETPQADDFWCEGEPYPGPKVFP
UniProt Q9BWH6: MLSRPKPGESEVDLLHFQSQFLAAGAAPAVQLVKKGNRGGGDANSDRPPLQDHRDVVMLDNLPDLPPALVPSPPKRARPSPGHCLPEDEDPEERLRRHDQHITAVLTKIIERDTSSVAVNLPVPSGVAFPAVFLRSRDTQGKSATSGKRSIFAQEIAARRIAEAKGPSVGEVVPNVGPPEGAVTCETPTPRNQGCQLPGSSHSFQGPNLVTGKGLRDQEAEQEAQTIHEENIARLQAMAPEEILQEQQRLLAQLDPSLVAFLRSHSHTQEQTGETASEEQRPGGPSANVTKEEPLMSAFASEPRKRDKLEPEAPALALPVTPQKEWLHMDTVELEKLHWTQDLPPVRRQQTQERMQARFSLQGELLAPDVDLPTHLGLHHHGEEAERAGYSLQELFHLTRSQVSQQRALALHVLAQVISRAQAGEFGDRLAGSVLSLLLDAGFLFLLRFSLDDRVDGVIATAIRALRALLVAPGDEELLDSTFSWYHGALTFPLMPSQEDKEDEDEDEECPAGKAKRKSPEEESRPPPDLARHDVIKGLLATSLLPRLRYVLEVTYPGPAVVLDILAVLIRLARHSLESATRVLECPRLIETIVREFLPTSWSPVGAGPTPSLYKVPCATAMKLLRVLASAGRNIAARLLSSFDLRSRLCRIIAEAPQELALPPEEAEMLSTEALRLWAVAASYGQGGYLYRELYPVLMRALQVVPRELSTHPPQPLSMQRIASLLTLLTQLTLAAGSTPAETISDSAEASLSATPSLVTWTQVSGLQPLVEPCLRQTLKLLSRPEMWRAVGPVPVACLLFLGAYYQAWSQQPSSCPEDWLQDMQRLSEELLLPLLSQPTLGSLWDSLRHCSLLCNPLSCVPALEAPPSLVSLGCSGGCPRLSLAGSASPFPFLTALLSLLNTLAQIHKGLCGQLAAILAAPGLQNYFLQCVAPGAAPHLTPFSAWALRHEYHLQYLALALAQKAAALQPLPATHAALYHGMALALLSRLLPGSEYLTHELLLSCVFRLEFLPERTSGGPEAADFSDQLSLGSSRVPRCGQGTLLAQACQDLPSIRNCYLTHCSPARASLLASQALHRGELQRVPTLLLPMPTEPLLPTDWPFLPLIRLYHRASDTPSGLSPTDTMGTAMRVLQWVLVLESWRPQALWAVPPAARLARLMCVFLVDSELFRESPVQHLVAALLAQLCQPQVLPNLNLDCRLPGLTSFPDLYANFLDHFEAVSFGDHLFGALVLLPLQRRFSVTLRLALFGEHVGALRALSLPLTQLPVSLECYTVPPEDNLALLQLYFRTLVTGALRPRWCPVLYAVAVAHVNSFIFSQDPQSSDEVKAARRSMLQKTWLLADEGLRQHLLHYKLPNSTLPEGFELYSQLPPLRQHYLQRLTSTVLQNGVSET
UniProt Q99829: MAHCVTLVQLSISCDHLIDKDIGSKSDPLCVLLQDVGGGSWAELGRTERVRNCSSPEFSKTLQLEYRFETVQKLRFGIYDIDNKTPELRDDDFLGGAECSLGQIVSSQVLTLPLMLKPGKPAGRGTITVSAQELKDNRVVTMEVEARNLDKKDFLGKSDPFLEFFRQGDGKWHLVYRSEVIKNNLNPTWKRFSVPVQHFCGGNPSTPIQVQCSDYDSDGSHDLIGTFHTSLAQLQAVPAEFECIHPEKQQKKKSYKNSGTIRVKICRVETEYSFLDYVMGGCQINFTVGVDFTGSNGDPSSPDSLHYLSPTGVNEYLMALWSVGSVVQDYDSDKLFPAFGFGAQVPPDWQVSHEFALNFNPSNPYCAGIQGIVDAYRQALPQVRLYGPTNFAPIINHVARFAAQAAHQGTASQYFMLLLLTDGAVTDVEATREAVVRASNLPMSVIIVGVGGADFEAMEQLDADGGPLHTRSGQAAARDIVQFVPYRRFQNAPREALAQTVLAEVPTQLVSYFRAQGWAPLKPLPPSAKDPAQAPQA
UniProt Q9BXW9: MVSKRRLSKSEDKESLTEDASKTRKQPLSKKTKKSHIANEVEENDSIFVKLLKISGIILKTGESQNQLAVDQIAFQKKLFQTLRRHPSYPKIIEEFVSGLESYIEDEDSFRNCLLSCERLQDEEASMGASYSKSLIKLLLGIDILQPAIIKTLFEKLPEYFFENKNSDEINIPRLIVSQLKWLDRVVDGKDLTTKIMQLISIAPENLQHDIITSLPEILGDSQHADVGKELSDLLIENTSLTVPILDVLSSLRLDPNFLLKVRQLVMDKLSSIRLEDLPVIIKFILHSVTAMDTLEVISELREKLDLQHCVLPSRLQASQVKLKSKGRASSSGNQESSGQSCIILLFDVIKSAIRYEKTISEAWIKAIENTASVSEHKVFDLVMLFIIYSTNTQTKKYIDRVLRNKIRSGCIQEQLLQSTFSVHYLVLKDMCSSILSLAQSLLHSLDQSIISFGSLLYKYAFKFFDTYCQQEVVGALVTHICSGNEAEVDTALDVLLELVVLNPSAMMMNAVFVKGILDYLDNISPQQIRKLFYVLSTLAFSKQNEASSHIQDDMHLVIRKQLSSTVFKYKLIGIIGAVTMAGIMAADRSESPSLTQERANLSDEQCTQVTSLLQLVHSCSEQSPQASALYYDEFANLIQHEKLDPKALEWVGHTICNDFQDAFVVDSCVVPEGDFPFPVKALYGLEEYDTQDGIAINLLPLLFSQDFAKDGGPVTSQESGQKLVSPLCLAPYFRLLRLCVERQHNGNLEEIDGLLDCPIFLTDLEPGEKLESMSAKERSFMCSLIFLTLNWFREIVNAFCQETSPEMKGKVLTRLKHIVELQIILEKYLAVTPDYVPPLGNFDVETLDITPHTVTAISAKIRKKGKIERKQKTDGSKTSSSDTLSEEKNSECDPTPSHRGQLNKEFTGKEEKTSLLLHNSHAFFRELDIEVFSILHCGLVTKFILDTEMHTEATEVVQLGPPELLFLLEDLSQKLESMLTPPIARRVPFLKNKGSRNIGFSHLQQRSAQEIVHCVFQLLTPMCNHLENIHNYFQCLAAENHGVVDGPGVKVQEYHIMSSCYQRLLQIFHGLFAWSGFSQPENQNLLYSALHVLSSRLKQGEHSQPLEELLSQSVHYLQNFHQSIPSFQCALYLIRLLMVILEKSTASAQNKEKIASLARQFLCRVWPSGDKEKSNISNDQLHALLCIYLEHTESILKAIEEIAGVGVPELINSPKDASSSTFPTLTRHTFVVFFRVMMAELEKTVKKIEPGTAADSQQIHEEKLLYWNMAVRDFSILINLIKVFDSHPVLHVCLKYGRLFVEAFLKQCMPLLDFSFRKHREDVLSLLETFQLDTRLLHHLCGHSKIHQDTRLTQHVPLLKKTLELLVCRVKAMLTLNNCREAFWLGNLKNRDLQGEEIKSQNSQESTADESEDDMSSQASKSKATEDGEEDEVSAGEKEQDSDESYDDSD
UniProt Q9BVS4: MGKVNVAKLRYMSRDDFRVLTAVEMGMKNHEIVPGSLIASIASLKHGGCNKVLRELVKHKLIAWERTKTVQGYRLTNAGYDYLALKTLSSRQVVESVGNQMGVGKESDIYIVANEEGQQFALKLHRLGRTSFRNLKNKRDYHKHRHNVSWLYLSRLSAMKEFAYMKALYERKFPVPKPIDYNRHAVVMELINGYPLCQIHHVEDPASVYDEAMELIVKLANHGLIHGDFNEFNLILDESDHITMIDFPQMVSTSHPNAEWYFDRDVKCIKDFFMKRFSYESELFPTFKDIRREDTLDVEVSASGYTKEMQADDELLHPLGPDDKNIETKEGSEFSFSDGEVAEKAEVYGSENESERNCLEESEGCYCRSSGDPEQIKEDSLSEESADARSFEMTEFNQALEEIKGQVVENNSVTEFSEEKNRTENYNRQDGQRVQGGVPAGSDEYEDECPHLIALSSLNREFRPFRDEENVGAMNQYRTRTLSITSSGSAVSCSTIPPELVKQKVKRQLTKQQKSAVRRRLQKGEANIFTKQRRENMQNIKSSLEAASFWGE
UniProt Q99704: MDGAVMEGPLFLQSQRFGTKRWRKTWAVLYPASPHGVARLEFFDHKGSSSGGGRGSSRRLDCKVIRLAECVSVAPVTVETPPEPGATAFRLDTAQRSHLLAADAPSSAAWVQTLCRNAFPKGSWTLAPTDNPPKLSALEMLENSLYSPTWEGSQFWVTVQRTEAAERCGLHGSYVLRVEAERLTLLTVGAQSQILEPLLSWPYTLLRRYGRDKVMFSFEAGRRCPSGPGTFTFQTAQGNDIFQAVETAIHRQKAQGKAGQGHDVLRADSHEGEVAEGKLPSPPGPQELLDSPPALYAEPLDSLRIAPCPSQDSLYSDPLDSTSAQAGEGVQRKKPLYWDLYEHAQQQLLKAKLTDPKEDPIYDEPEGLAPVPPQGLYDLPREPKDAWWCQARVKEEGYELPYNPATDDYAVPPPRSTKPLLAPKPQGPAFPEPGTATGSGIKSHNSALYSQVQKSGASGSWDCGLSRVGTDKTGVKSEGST
UniProt Q9BVP2: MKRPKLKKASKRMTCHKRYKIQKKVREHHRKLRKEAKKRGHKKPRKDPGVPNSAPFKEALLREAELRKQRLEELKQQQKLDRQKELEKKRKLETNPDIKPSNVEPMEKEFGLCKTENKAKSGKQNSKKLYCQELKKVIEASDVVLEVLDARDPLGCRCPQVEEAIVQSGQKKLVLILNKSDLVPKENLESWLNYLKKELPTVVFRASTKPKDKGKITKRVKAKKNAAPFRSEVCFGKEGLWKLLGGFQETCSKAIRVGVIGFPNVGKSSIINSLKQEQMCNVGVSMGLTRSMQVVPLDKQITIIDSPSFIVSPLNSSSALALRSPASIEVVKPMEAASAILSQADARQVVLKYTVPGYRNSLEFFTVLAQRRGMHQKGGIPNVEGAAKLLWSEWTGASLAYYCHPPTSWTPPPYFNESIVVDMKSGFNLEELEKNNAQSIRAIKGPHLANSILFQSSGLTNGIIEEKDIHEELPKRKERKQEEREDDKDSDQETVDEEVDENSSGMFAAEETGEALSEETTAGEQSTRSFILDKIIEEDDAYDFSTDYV
UniProt Q9BSU1: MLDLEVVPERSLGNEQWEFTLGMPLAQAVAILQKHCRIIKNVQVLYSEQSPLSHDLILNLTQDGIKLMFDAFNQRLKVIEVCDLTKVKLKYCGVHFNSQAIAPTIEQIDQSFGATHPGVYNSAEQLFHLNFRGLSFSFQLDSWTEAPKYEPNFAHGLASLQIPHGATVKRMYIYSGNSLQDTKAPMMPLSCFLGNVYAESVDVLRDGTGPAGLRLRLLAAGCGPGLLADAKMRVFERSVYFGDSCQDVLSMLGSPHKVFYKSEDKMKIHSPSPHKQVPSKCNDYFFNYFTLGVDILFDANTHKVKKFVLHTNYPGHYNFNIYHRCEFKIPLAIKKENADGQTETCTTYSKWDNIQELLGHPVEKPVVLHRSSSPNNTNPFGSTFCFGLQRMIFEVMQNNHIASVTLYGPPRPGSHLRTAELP
UniProt Q99719: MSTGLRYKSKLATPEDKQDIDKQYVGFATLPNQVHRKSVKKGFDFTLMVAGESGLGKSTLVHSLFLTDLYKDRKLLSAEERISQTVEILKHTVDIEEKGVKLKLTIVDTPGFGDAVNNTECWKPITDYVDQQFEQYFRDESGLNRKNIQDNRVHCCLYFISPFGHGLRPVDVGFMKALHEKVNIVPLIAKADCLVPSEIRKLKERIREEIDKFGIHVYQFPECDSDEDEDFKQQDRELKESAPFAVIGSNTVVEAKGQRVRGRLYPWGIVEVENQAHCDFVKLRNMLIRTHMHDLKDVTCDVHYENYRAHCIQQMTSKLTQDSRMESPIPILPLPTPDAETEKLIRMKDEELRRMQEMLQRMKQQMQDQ
UniProt Q9BV57: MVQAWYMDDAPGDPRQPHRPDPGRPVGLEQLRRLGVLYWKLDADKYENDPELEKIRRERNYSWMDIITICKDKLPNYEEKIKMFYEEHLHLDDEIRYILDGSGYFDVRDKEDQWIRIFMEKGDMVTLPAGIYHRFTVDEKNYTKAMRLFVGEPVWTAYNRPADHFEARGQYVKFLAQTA
UniProt Q9BV79: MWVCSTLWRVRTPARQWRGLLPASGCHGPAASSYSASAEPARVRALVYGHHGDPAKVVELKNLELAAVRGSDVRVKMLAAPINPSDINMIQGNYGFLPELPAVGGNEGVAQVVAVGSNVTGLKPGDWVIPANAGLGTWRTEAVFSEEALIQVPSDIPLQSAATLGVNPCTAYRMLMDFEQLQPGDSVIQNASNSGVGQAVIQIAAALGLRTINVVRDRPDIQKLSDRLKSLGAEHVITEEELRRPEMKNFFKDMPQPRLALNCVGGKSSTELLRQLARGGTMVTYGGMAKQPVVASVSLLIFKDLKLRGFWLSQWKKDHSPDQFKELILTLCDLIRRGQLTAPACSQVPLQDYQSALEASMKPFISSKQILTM

Target	NP40-soluble protein abundance (concentration: 1mM)	NP40-soluble protein abundance (concentration: 2mM)	NP40-soluble protein abundance (concentration: 4mM)	NP40-soluble protein abundance (concentration: 6mM)	NP40-soluble protein abundance (concentration: 8mM)	NP40-soluble protein abundance (concentration: 10mM)
UniProt Q9BTL3	0.9722 ± 0.0028	0.997 ± 0.0059	0.921 ± 0.052	0.924 ± 0.07	0.93 ± 0.061	0.923 ± 0.059
MACROD1 (UniProt Q9BQ69)	1.01 ± 0.066	1.04 ± 0.069	0.966 ± 0.094	0.975 ± 0.05	0.982 ± 0.062	0.949 ± 0.095
MRPL13 (UniProt Q9BYD1)	0.993 ± 0.073	1.01 ± 0.038	1.02 ± 0.12	0.964 ± 0.13	0.959 ± 0.071	0.967 ± 0.1
UniProt Q9BVC5 and related entries	0.915 ± 0.024	0.987 ± 0.026	0.966 ± 0.025	1.03 ± 0.025	1.036 ± 0.0066	1.06 ± 0.065
NAPG (UniProt Q99747)	1.013 ± 0.01	1.07 ± 0.057	0.9864 ± 0.0066	0.9833 ± 0.009	0.97 ± 0.029	0.964 ± 0.011
DIDO1 (UniProt Q9BTC0)	1.1 ± 0.035	1.18 ± 0.093	1.23 ± 0.043	1.28 ± 0.12	1.27 ± 0.12	1.36 ± 0.12
UniProt Q9BXM9 and related entries	0.992 ± 0.021	0.989 ± 0.038	0.998 ± 0.041	0.99 ± 0.017	0.972 ± 0.046	0.986 ± 0.029
CCNL2 (UniProt Q96S94)	1 ± 0.046	1.05 ± 0.062	1.01 ± 0.012	1.02 ± 0.026	1.02 ± 0.023	1.01 ± 0.015
UniProt Q9BS26	1.048 ± 0.0098	1.04 ± 0.06	1.03 ± 0.033	1 ± 0.023	1.03 ± 0.022	0.999 ± 0.02
ADO (UniProt Q96SZ5)	1.01 ± 0.036	1.04 ± 0.045	1.05 ± 0.029	1.04 ± 0.022	0.99 ± 0.039	1.04 ± 0.041
UniProt Q9BV86	1.01 ± 0.052	0.941 ± 0.061	1.02 ± 0.033	0.971 ± 0.042	1 ± 0.064	0.954 ± 0.051
SDF4 (UniProt Q9BRK5)	0.998 ± 0.023	1.04 ± 0.087	0.962 ± 0.033	0.945 ± 0.012	0.907 ± 0.021	0.912 ± 0.077
UniProt Q9BPY3 and related entries	1.03 ± 0.019	1.01 ± 0.027	1.015 ± 0.0099	0.977 ± 0.024	0.997 ± 0.02	0.972 ± 0.027
UniProt Q96T76 and related entries	0.964 ± 0.013	0.929 ± 0.082	0.972 ± 0.032	0.987 ± 0.036	1.002 ± 0.0053	0.9354 ± 0.0075
TIPIN (UniProt Q9BVW5)	0.948 ± 0.06	1.04 ± 0.14	0.933 ± 0.072	0.928 ± 0.063	0.911 ± 0.057	0.929 ± 0.093
DCUN1D5 (UniProt Q9BTE7)	0.983 ± 0.041	0.966 ± 0.04	0.988 ± 0.015	0.986 ± 0.036	1.01 ± 0.033	0.97 ± 0.022
UniProt Q9BRR6 and related entries	1.03 ± 0.068	1.01 ± 0.035	1.04 ± 0.032	0.99 ± 0.054	1.01 ± 0.068	0.995 ± 0.035
BACH2 (UniProt Q9BYV9)	1.01 ± 0.017	1.02 ± 0.031	0.992 ± 0.04	1.02 ± 0.035	0.991 ± 0.045	1.02 ± 0.05
GPATCH1 (UniProt Q9BRR8)	1.03 ± 0.039	1.02 ± 0.029	1.06 ± 0.037	1.04 ± 0.047	1.04 ± 0.043	1.08 ± 0.059
RPAP1 (UniProt Q9BWH6)	1.02 ± 0.025	1.01 ± 0.039	1.05 ± 0.015	1.02 ± 0.021	1.019 ± 0.0088	0.995 ± 0.029

Target	NP40-soluble protein abundance (concentration: 1mM)	NP40-soluble protein abundance (concentration: 2mM)	NP40-soluble protein abundance (concentration: 4mM)	NP40-soluble protein abundance (concentration: 6mM)	NP40-soluble protein abundance (concentration: 8mM)	NP40-soluble protein abundance (concentration: 10mM)
PECR (UniProt Q9BY49)	1.08 ± 0.016	1.07 ± 0.027	1.09 ± 0.028	1.09 ± 0.015	1.07 ± 0.028	1.12 ± 0.018
UniProt Q99829 and related entries	0.973 ± 0.022	0.935 ± 0.014	0.9803 ± 0.0079	1.03 ± 0.062	1.06 ± 0.076	1.02 ± 0.038
CENPO (UniProt Q9BU64)	1.03 ± 0.012	1.03 ± 0.016	1.02 ± 0.022	1.02 ± 0.0093	1.011 ± 0.0061	1.04 ± 0.018
UniProt Q99504 and related entries	0.995 ± 0.044	1.02 ± 0.04	0.99 ± 0.035	1.02 ± 0.012	1.02 ± 0.013	1.02 ± 0.031
HIRIP3 (UniProt Q9BW71)	1.05 ± 0.033	1.18 ± 0.12	1.11 ± 0.045	1.19 ± 0.024	1.14 ± 0.021	1.23 ± 0.023
VAT1 (UniProt Q99536)	0.976 ± 0.02	0.987 ± 0.034	0.962 ± 0.029	1 ± 0.05	0.981 ± 0.044	0.975 ± 0.051
ARPC5L (UniProt Q9BPX5)	1.04 ± 0.045	1.07 ± 0.06	1.07 ± 0.064	1 ± 0.036	0.998 ± 0.036	1.02 ± 0.047
NUDCD1 (UniProt Q96RS6)	0.964 ± 0.02	0.892 ± 0.085	0.928 ± 0.058	0.913 ± 0.017	0.935 ± 0.072	0.861 ± 0.035
RANBP9 (UniProt Q96S59)	0.968 ± 0.061	0.971 ± 0.035	0.968 ± 0.069	0.978 ± 0.076	0.931 ± 0.057	0.968 ± 0.084
UniProt Q9BUL5 and related entries	1.02 ± 0.019	1.07 ± 0.093	1.01 ± 0.023	1.06 ± 0.023	1.01 ± 0.035	1.02 ± 0.061
TMED9 (UniProt Q9BVK6)	0.959 ± 0.036	0.919 ± 0.026	0.91 ± 0.013	0.965 ± 0.056	0.97 ± 0.041	0.957 ± 0.013
CABLES2 (UniProt Q9BTV7)	1 ± 0.016	1 ± 0.014	0.98908 ± 0.00067	0.996 ± 0.029	1 ± 0.011	0.985 ± 0.017
UniProt Q96RS0 and related entries	0.9804 ± 0.0096	1.01 ± 0.019	1 ± 0.022	1 ± 0.028	0.999 ± 0.023	1.033 ± 0.009
UniProt Q9BZ95 and related entries	1.06 ± 0.025	1.11 ± 0.015	1.12 ± 0.04	1.138 ± 0.01	1.18 ± 0.035	1.22 ± 0.033
UniProt Q9BXW9 and related entries	0.998 ± 0.052	1.02 ± 0.029	0.984 ± 0.043	1.01 ± 0.029	0.943 ± 0.033	1 ± 0.031
UniProt Q9BVS4 and related entries	0.966 ± 0.037	1.04 ± 0.031	1 ± 0.032	0.9674 ± 0.0025	0.977 ± 0.02	0.996 ± 0.026
DOK1 (UniProt Q99704)	1.04 ± 0.019	1.02 ± 0.023	1.02 ± 0.053	0.985 ± 0.037	1.007 ± 0.01	1 ± 0.033
UniProt Q9BU23 and related entries	0.947 ± 0.031	0.956 ± 0.066	0.971 ± 0.015	0.951 ± 0.032	0.983 ± 0.018	0.94 ± 0.051
RNF2 (UniProt Q99496)	1.02 ± 0.023	1.06 ± 0.045	1.06 ± 0.028	1.06 ± 0.025	1.1 ± 0.026	1.14 ± 0.028
UniProt Q99873-3|Q99873-4	0.955 ± 0.064	0.812 ± 0.13	0.9148 ± 0.0045	0.889 ± 0.033	0.957 ± 0.033	0.847 ± 0.059

Target	NP40-soluble protein abundance (concentration: 1mM)	NP40-soluble protein abundance (concentration: 2mM)	NP40-soluble protein abundance (concentration: 4mM)	NP40-soluble protein abundance (concentration: 6mM)	NP40-soluble protein abundance (concentration: 8mM)	NP40-soluble protein abundance (concentration: 10mM)
TM9SF2 (UniProt Q99805)	0.947 ± 0.11	0.882 ± 0.045	0.94 ± 0.046	0.925 ± 0.094	0.98 ± 0.053	0.873 ± 0.076
PRPF18 (UniProt Q99633)	1.02 ± 0.045	1.05 ± 0.014	1.06 ± 0.04	1.05 ± 0.044	1.05 ± 0.014	1.09 ± 0.06
TXN2 (UniProt Q99757)	0.99 ± 0.065	1.032 ± 0.0055	0.976 ± 0.081	0.986 ± 0.022	0.938 ± 0.013	0.945 ± 0.038
UniProt Q99871 and related entries	0.95 ± 0.026	0.9473 ± 0.0069	0.9167 ± 0.005	0.903 ± 0.03	0.875 ± 0.046	0.876 ± 0.058
WDR77 (UniProt Q9BQA1)	0.966 ± 0.025	0.961 ± 0.056	0.987 ± 0.015	0.981 ± 0.012	0.991 ± 0.03	0.995 ± 0.035
UniProt Q9BVP2 and related entries	1.07 ± 0.054	1.09 ± 0.023	1.11 ± 0.061	1.12 ± 0.12	1.14 ± 0.1	1.23 ± 0.13
UniProt Q9BV81	0.971 ± 0.012	0.972 ± 0.018	0.963 ± 0.035	0.968 ± 0.019	0.969 ± 0.024	0.942 ± 0.013
NCAPG (UniProt Q9BPX3)	0.983 ± 0.019	0.946 ± 0.019	0.975 ± 0.019	0.947 ± 0.034	0.952 ± 0.036	0.956 ± 0.035
SPAG5 (UniProt Q96R06)	1 ± 0.029	1.03 ± 0.068	0.977 ± 0.024	0.946 ± 0.017	0.908 ± 0.02	0.933 ± 0.049
PSMD1 (UniProt Q99460)	0.902 ± 0.044	0.887 ± 0.06	0.851 ± 0.094	0.863 ± 0.11	0.848 ± 0.098	0.847 ± 0.13
HDHD3 (UniProt Q9BSH5)	0.996 ± 0.019	0.978 ± 0.086	1.04 ± 0.059	1 ± 0.039	1.01 ± 0.039	0.996 ± 0.066
C16orf70 (UniProt Q9BSU1)	1.01 ± 0.056	0.978 ± 0.029	0.982 ± 0.042	1.01 ± 0.018	1.02 ± 0.02	1.05 ± 0.02
UniProt Q99719 and related entries	1.069 ± 0.0045	1.01 ± 0.036	1.06 ± 0.046	1.04 ± 0.036	1.06 ± 0.097	1.04 ± 0.027
RIOK1 (UniProt Q9BRS2)	0.921 ± 0.032	0.975 ± 0.029	0.959 ± 0.04	0.934 ± 0.062	0.9 ± 0.03	0.999 ± 0.046
ADI1 (UniProt Q9BV57)	1.01 ± 0.039	0.94 ± 0.011	0.972 ± 0.022	0.966 ± 0.026	0.989 ± 0.013	0.914 ± 0.051
MECR (UniProt Q9BV79)	1.04 ± 0.021	1.21 ± 0.051	1.07 ± 0.011	1.04 ± 0.024	1.048 ± 0.0045	1.05 ± 0.03
TSNAX (UniProt Q99598)	0.973 ± 0.024	0.997 ± 0.052	0.985 ± 0.035	1.03 ± 0.057	1.03 ± 0.043	1.02 ± 0.061
MRPL9 (UniProt Q9BYD2)	1.04 ± 0.13	0.967 ± 0.13	1.03 ± 0.075	0.982 ± 0.09	1.01 ± 0.072	0.972 ± 0.15
UniProt Q9BX66-10|Q9BX66-12|Q9BX66-4|Q9BX66-5|Q9BX66-6|Q9BX66-8|Q9BX66-9	0.979 ± 0.024	1.02 ± 0.022	1.03 ± 0.014	1.019 ± 0.0014	0.993 ± 0.0014	1.0151 ± 0.00071
ACAT2 (UniProt Q9BWD1)	0.987 ± 0.021	0.996 ± 0.038	0.931 ± 0.021	0.967 ± 0.017	0.951 ± 0.021	0.92 ± 0.02

In another format: entries from further up
Target,NP40-soluble protein abundance (concentration: 1mM),NP40-soluble protein abundance (concentration: 2mM),NP40-soluble protein abundance (concentration: 4mM),NP40-soluble protein abundance (concentration: 6mM),NP40-soluble protein abundance (concentration: 8mM),NP40-soluble protein abundance (concentration: 10mM)
UniProt Q99719 and related entries,1.069 ± 0.0045,1.01 ± 0.036,1.06 ± 0.046,1.04 ± 0.036,1.06 ± 0.097,1.04 ± 0.027
RIOK1 (UniProt Q9BRS2),0.921 ± 0.032,0.975 ± 0.029,0.959 ± 0.04,0.934 ± 0.062,0.9 ± 0.03,0.999 ± 0.046

— the supplement of paper PMC6411743
